From the supplement of paper PMC11732987, “Enantioselective OTUD7B fragment discovery through chemoproteomics screening and high-throughput optimisation” (Communications Chemistry, 2025)
This is one part of the list. The data scatter; read single values as rough.

Protein sequences, listed by entry. Tags and fused reporters are not part of them. Lines headed by an entry give the natural chain unless they say otherwise; changes in a name come on top. Residues count along the entry.
UniProt Q9UJT0, 198-220: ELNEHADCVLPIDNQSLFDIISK
UniProt Q7Z4L5: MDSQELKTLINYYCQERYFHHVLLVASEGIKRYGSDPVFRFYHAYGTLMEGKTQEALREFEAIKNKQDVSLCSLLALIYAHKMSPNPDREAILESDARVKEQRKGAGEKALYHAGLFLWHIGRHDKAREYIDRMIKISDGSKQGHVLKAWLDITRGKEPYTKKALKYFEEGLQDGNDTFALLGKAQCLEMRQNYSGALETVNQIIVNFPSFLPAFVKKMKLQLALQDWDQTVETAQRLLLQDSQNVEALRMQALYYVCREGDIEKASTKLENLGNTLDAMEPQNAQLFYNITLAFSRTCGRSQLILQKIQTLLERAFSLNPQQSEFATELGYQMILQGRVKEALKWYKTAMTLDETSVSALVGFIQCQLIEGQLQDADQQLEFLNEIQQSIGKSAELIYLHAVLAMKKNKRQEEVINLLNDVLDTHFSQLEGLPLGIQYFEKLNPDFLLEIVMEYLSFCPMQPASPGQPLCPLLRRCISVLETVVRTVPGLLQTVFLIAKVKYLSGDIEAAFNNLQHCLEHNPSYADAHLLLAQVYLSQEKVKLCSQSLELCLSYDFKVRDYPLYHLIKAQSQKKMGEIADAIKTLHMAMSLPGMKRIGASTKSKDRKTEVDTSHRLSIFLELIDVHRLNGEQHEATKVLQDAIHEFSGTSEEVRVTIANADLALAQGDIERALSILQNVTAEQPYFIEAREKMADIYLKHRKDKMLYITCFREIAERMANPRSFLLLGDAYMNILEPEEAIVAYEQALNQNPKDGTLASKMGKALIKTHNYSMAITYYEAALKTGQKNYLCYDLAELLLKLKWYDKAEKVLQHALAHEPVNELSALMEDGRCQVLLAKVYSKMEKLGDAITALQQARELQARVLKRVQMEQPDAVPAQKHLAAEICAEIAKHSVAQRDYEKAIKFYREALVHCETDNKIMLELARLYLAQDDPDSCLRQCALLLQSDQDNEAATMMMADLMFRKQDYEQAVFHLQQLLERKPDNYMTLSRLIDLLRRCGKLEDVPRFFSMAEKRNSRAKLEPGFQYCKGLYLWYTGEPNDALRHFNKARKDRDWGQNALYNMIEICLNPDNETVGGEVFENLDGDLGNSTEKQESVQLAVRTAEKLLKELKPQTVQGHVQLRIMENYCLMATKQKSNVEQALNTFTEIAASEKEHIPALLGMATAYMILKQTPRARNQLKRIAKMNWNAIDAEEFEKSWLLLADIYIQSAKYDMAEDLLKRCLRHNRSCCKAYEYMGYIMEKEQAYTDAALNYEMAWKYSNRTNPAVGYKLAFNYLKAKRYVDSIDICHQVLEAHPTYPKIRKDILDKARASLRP
UniProt Q8NG68: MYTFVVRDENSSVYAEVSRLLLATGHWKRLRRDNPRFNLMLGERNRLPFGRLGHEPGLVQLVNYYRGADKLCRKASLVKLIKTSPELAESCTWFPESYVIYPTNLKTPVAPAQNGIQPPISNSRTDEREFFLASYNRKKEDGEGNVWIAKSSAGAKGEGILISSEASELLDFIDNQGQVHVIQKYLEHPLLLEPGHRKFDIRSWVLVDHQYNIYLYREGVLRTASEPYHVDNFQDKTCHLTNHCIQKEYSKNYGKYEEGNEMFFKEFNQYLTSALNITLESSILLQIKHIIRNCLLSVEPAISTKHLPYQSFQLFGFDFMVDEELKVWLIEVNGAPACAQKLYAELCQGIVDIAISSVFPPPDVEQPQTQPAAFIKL
UniProt Q7Z2T5: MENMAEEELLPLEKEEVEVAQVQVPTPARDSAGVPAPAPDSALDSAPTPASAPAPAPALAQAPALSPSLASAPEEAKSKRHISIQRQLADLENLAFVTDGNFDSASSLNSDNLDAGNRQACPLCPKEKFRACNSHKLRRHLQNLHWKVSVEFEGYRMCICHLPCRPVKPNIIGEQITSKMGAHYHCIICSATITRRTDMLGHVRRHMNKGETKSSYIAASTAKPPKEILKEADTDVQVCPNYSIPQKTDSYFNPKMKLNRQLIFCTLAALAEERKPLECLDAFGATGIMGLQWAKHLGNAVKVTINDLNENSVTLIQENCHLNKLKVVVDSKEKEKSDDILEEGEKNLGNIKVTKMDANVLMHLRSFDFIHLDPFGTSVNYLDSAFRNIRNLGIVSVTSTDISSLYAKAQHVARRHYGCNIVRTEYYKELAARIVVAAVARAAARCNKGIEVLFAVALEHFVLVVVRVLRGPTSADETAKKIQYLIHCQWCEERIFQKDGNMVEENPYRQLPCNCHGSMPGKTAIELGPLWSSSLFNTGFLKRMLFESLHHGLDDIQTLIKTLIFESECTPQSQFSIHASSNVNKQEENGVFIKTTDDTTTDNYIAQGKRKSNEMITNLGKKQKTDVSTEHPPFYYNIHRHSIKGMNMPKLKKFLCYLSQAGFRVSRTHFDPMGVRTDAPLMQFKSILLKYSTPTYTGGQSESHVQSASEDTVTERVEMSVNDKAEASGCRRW
UniProt Q6PID6, whole entry, looked up: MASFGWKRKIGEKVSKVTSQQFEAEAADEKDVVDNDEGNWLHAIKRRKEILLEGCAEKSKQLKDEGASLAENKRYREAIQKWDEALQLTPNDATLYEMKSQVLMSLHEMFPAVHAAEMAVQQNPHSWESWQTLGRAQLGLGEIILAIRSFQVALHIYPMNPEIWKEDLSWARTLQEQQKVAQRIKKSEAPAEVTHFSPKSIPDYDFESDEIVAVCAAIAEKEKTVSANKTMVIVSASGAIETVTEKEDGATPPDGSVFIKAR
UniProt Q96AY4: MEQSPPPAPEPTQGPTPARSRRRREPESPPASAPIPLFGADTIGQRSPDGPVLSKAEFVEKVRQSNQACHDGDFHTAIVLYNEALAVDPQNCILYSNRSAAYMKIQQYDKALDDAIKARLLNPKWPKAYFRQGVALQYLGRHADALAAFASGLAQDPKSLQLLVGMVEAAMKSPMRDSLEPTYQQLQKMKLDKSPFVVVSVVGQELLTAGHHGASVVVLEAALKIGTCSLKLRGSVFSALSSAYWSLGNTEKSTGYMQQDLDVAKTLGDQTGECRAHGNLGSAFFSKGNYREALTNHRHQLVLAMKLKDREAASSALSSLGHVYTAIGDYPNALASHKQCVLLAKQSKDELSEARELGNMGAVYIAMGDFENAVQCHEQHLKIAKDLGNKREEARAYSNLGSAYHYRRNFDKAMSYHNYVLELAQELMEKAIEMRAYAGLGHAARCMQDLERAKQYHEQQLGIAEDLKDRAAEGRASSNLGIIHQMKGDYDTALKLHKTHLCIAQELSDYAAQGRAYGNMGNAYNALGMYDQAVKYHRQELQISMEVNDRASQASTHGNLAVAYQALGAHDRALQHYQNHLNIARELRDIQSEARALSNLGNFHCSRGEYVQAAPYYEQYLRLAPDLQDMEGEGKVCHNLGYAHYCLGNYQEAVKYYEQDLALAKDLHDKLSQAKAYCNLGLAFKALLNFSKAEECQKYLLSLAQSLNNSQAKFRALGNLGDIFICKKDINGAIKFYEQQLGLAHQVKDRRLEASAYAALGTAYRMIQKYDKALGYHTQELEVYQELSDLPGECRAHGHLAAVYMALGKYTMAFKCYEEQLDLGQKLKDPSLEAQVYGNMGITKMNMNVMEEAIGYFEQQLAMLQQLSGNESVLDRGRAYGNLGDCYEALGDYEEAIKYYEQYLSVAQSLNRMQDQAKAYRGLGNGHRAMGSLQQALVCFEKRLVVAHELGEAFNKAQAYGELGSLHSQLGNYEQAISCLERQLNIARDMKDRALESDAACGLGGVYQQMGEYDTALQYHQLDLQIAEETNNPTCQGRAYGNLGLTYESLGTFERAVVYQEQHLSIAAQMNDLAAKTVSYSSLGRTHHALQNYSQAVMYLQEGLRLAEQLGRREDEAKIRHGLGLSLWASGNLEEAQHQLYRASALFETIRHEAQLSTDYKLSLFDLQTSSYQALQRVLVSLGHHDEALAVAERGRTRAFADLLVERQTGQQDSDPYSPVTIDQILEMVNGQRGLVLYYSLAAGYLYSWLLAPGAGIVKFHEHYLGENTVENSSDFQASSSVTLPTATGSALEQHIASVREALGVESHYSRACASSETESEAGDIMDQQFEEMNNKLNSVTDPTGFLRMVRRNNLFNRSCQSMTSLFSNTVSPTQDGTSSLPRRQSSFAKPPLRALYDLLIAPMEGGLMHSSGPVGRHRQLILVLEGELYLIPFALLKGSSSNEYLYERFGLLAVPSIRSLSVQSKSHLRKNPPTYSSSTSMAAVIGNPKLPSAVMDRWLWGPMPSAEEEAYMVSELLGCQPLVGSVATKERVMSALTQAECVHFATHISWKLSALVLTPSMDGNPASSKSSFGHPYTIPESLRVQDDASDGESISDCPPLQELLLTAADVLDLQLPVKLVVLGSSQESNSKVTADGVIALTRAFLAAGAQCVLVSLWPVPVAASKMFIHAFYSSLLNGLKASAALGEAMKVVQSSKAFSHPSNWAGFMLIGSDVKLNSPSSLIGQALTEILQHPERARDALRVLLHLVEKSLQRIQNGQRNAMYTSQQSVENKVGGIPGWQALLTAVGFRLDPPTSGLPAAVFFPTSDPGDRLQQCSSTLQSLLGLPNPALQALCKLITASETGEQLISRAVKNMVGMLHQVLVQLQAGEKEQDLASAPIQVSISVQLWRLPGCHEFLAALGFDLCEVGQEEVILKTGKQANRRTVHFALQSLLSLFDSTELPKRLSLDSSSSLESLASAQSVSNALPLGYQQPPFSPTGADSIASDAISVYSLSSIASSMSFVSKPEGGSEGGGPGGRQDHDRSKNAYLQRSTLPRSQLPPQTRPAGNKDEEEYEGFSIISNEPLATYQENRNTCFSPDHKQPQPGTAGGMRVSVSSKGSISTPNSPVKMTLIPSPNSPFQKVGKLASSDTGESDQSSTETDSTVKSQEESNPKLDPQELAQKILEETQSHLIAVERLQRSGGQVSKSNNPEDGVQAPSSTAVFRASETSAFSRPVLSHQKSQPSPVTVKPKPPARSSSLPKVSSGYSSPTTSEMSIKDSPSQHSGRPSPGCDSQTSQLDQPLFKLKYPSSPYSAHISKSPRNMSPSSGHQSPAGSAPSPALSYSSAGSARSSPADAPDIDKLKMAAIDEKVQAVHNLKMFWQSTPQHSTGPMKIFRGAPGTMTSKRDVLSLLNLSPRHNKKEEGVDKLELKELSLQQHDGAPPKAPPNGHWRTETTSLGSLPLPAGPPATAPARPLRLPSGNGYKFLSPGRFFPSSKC
UniProt O14562: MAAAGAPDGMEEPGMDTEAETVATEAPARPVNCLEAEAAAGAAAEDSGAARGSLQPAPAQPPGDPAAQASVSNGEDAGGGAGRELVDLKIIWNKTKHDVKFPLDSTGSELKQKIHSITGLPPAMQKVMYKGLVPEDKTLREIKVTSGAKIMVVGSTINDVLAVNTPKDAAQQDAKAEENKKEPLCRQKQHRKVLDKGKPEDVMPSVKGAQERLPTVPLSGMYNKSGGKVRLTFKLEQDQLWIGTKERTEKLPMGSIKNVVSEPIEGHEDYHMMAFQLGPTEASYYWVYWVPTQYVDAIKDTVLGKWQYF
UniProt O43156: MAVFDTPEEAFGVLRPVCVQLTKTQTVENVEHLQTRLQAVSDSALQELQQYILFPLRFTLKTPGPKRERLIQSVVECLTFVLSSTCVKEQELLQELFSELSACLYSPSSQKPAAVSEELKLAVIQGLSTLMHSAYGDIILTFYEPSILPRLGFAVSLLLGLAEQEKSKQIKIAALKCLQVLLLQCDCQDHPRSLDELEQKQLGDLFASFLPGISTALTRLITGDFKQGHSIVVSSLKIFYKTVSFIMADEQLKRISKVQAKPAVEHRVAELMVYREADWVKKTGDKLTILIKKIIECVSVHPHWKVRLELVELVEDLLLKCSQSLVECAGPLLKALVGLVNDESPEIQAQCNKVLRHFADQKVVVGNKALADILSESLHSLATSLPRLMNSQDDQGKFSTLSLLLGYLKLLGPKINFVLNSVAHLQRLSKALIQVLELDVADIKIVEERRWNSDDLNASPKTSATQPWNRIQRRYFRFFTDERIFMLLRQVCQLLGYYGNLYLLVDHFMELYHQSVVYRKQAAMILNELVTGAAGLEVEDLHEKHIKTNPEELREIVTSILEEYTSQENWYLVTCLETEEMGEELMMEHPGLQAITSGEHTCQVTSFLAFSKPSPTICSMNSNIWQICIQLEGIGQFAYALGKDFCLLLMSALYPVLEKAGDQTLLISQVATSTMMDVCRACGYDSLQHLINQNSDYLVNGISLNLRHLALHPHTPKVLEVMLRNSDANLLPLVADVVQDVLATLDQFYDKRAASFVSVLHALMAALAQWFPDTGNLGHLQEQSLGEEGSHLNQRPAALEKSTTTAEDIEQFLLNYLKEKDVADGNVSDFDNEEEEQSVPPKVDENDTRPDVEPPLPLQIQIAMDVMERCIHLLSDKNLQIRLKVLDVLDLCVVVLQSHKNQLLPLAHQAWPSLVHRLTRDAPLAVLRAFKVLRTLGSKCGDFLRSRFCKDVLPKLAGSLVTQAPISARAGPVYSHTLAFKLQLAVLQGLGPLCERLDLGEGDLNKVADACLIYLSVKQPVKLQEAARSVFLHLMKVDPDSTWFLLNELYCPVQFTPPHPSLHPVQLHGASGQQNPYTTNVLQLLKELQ

Compound: ClCC(=O)N[C@@H]1CCCc2ccccc12
Assay: log2 mean competition ratio of IA-DTB cysteine labelling (DMSO/compound) (log2 ratio); higher = stronger cysteine engagement by compound
Settings: 50 µM; treatment time: 4 h; cell line lysate: HEK293T
Method: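 IA-DTB competitive cysteine chemoproteomics in HEK293T RIPA lysate. Lysates were treated with compound 29 or 30 at 50 or 200 µM for 4 h, then IA-DTB (500 µM, 1 h), trypsin-digested, NeutrAvidin-enriched and analysed by diaPASEF. Competition ratio = intensity DMSO / intensity compound (n=4 treated, n=64 DMSO); binding: mean log2 CR ≥ 1 and p ≤ 0.05 plus QC filters. Target is the cysteine site.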

| Target | log2 mean competition ratio |
| --- | --- |
| TSHZ1 C363 | -0.048 |
| TUBE1 C205 (UniProt Q9UJT0) | -0.257 |
| TTC21B C937 (UniProt Q7Z4L5) | 0.0305 |
| TTL C294 (UniProt Q8NG68) | -0.182 |
| UBA2 C173 | -0.103 |
| UBE2Q1 C157 (UniProt Q7Z7E8) | -0.137 |
| UBA6 C17 | -0.234 |
| TXNRD3 C76 (UniProt Q86VQ6) | 0.651 |
| UBE3A C108 (UniProt Q05086) | -0.0542 |
| TSTD2 C324 (UniProt Q5T7W7) | -0.11 |
| TRMT1L C419 (UniProt Q7Z2T5) | 0.248 |
| TUBGCP2 C737 (UniProt Q9BSJ2) | 0.36 |
| UBR4 C3279 (UniProt Q5T4S7) | 0.0838 |
| TTC33 C55 (UniProt Q6PID6) | -0.211 |
| U2AF2 C464 | 0.212 |
| UBE2O C375 | 0.0278 |
| UBE2O C598 | -0.0208 |
| TTC28 C726 (UniProt Q96AY4) | 0.599 |
| UBFD1 C185 (UniProt O14562) | -0.141 |
| TTI1 C351 (UniProt O43156) | -0.29 |

Same assay, conditions: 200 µM; treatment time: 4 h; cell line lysate: HEK293T

| Target | log2 mean competition ratio |
| --- | --- |
| TSHZ1 C363 | -0.358 |
| TUBE1 C205 (UniProt Q9UJT0) | 0.18 |
| TTC21B C937 (UniProt Q7Z4L5) | 0.405 |
| TTL C294 (UniProt Q8NG68) | -0.316 |
| UBA2 C173 | -0.254 |
| UBE2Q1 C157 (UniProt Q7Z7E8) | -0.162 |
| UBA6 C17 | -0.285 |
| TXNRD3 C76 (UniProt Q86VQ6) | 0.963 |
| UBE3A C108 (UniProt Q05086) | -0.0169 |
| TSTD2 C324 (UniProt Q5T7W7) | 0.223 |
| TRMT1L C419 (UniProt Q7Z2T5) | -0.103 |
| TUBGCP2 C737 (UniProt Q9BSJ2) | -0.0673 |
| UBR4 C3279 (UniProt Q5T4S7) | -0.115 |
| TTC33 C55 (UniProt Q6PID6) | -0.133 |
| U2AF2 C464 | -0.214 |
| UBE2O C375 | 0.026 |
| UBE2O C598 | -0.153 |
| TTC28 C726 (UniProt Q96AY4) | 0.116 |
| UBFD1 C185 (UniProt O14562) | 0.191 |
| TTI1 C351 (UniProt O43156) | 0.0887 |
